Data: article doi:10.1101/2022.12.08.519630
Results are given in words; binding and its absence hold for the method and conditions named. Binding seen in cells or lysates may run through a third protein. Here binding means that the protein was enriched with, or labelled near, the bait; the list need not be complete.

B1: ACO3 (protein, UniProt Q9SIB9 79-990)
chain: VSPVLDRLQRTFSSMASEHPFKGIFTTLPKPGGGEFGKFYSLPALNDPRVDKLPYSIRILLESAIRNCDNFQVTKEDVEKIIDWEKTSPKQVEIPFKPARVLLQDFTGVPAVVDLACMRDAMNKLGSDSNKINPLVPVDLVIDHSVQVDVARSENAVQANMELEFQRNKERFAFLKWGSTAFQNMLVVPPGSGIVHQVNLEYLGRVVFNTKGLLYPDSVVGTDSHTTMIDGLGVAGWGVGGIEAEATMLGQPMSMVLPGVVGFKLAGKMRNGVTATDLVLTVTQMLRKHGVVGKFVEFYGNGMSGLSLADRATIANMSPEYGATMGFFPVDHVTLQYLKLTGRSDETVAMIEAYLRANNMFVDYNEPQQDRVYSSYLELNLDDVEPCISGPKRPHDRVTLKEMKADWHSCLDSKVGFKGFAIPKEAQEKVVNFSFDGQPAELKHGSVVIAAITSCTNTSNPSVMLGAGLVAKKACDLGLQVKPWIKTSLAPGSGVVTKYLLKSGLQEYLNEQGFNIVGYGCTTCIGNSGEINESVGAAITENDIVAAAVLSGNRNFEGRVHPLTRANYLASPPLVVAYALAGTVNIDFETEPIGKGKNGKDVFLRDIWPTTEEIAEVVQSSVLPDMFRATYESITKGNPMWNKLSVPENTLYSWDPNSTYIHEPPYFKDMTMDPPGPHNVKDAYCLLNFGDSITTDHISPAGNIQKDSPAAKFLMERGVDRKDFNSYGSRRGNDEIMARGTFANIRIVNKLMNGEVGPKTVHIPSGEKLSVFDAAMRYKSSGEDTIILAGAEYGSGSSRDWAAKGPMLQGVKAVIAKSFERIHRSNLVGMGIIPLCFKSGEDADTLGLTGHERYTIHLPTDISEIRPGQDVTVTTDNGKSFTCTVRFDTEVELAYFNHGGILPYVIRNLSKQ
B2: CBSX2 (protein, UniProt Q9C5D0 72-238)
chain: AKNGGYTVGDFMTPRQNLHVVKPSTSVDDALELLVEKKVTGLPVIDDNWTLVGVVSDYDLLALDSISGRSQNDTNLFPDVDSTWKTFNELQKLISKTYGKVVGDLMTPSPLVVRDSTNLEDAARLLLETKFRRLPVVDADGKLIGILTRGNVVRAALQIKRETENST
B3: EGY2 (protein, UniProt Q9FFK3 65-556)
chain: VTETQTEPEGNDDEDNKEGKESSADDPPTKIPTELNSQSTVVNEAPGNEEENKAQFSSQDGDKLEVSSGSPLPGVNVSIIIHVIYKDDSIMFSGCLSFIKSCCEQPLQLDDSMRLPKETIDILRGQVFGFDTFFVTSQEPYEGGVLFKGNLRGKPATSYEKIKTRMENNFGDQYKLFLLTNPEDDKPVAVVVPRRSLEPETTAVPEWFAAGSFGLVALFTLFLRNVPALQSDLLSAFDNLELLKDGLPGALVTALVLGVHELGHILVANSLGIKLGVPFFVPSWQIGSFGAITRIKNIVAKREDLLKVAAAGPLAGFSLGLILFLIGLFVPPSDGIGVVVDASVFHESFLAGGIAKLLLGDALKEGTSISLNPLVIWAWAGLLINGINSIPAGELDGGKIAFSIWGRKTATRLTGASIALLGLSALFSDVAFYWVVLIFFLQRGPIAPLAEEITVPDDKYVSLGILVLFLSLLVCLPYPFAFTGNEAMMIGL
B4: FBA1 (protein, UniProt Q9SJU4 49-399)
chain: ASAYADELVKTAKTIASPGHGIMAMDESNATCGKRLASIGLENTEANRQAYRTLLVSAPGLGQYISGAILFEETLYQSTTDGKKMVDVLVEQNIVPGIKVDKGLVPLVGSYDESWCQGLDGLASRTAAYYQQGARFAKWRTVVSIPNGPSALAVKEAAWGLARYAAISQDSGLVPIVEPEIMLDGEHGIDRTYDVAEKVWAEVFFYLAQNNVMFEGILLKPSMVTPGAEATDRATPEQVASYTLKLLRNRIPPAVPGIMFLSGGQSELEATLNLNAMNQAPNPWHVSFSYARALQNTCLKTWGGKEENVKAAQDILLARAKANSLAQLGKYTGEGESEEAKEGMFVKGYTY
B5: AT2G17695, plastid outer envelope protein (protein, UniProt Q8GXB1 1-205)
chain: MVFLSWGRPSSEQQQQVINKTGTFNYDNKYRGVSSRSIAKLKEDSEIDKDGFLINHARVLVGSGRESYEKGKKALQNWKHFGMDWAFVDPATPVETGKKFCICVKEVLPWVMLPLQVVYVDESRKSRKGPAHFGYGSGTLQGHLLAGEEKFSIELDGNGEVWYEITSFSKPAHFLSFLGYPYVKLRQKHFARHSSEAVLKHVNAS
B6: AT2G19940, predicted N-acetyl-gamma-glutamyl-phosphate reductase (protein, UniProt Q93Z70 49-401)
chain: ASSSVKPEKDIRIGLLGASGYTGAEIVRLLANHPHFQVTLMTADRKAGQSMESVFPHLRAQKLPTLVSVKDADFSTVDAVFCCLPHGTTQEIIKELPTALKIVDLSADFRLRNIAEYEEWYGQPHKAVELQKEVVYGLTEILREDIKKARLVANPGCYPTTIQLPLVPLLKANLIKHENIIIDAKSGVSGAGRGAKEANLYSEIAEGISSYGVTRHRHVPEIEQGLSDVAQSKVTVSFTPHLMPMIRGMQSTIYVEMAPGVRTEDLHQQLKTSYEDEEFVKVLDEGVVPRTHNVRGSNYCHMSVFPDRIPGRAIIISVIDNLVKGASGQALQNLNIMLGYPETTGLLHQPLFP
B7: BCCP2 (protein, UniProt Q9LLC1 88-255)
chain: EFMAKVSGLLKLVDSKDIVELELKQLDCEIVIRKKEALQQAVPPAPVYHSMPPVMADFSMPPAQPVALPPSPTPTSTPATAKPTSAPSSSHPPLKSPMAGTFYRSPGPGEPPFVKVGDKVQKGQIVCIIEAMKLMNEIEAEKSGTIMELLAEDGKPVSVDTPLFVIAP
B8: EMB3119 (protein, UniProt Q9S726 40-276)
chain: SVALSQDDLKKLAAEKAVEAIKPGMVLGLGTGSTAAFAVDQIGKLLSSGELYDIVGIPTSKRTEEQARSLGIPLVGLDTHPRIDLAIDGADEVDPNLDLVKGRGGALLREKMVEAVADKFIVVADDTKLVTGLGGSGLAMPVEVVQFCWNFNLIRLQDLFKEFGCESKLRVDGDGKPYVTDNSNYIIDLYFKTPLKDGFAAAKEIGKFQGVVEHGLFLGMATSVIIAGKNGVEVMTK
B9: GUN2 (protein, UniProt O48782 55-282)
chain: AATTAAEKQKKRYPGESKGFVEEMRFVAMRLHTKDQAKEGEKETKSIEERPVAKWEPTVEGYLRFLVDSKLVYDTLELIIQDSNFPTYAEFKNTGLERAEKLSTDLEWFKEQGYEIPEPTAPGKTYSQYLKELAEKDPQAFICHFYNIYFAHSAGGRMIGRKVAERILDNKELEFYKWDGELSQLLQNVREKLNKVAEEWTREEKNHCLEETEKSFKYSGEILRLILS
B10: HSP90_6 (protein, UniProt F4JFN3 49-799)
chain: SSLTNGQSKNSGSFAQLNMKTNWFMGYRNESSAAASDSSSQAPPPAEKFEYQAEVSRLMDLIVNSLYSNKEVFLRELISNASDALDKLRYLSVTNPELSKDAPDLDIRIYADKENGIITLTDSGIGMTRQELVDCLGTIAQSGTAKFMKALKDSKDAGGDNNLIGQFGVGFYSAFLVADRVIVSTKSPKSDKQYVWEGEANSSSFTIQEDTDPQSLIPRGTRITLHLKQEAKNFADPERIQKLVKNYSQFVSFPIYTWQEKGYTKEVEVEDDPTETKKDDQDDQTEKKKKTKKVVERYWDWELTNETQPIWLRNPKEVTTAEYNEFYRKAFNEYLDPLASSHFTTEGEVEFRSILYVPPVSPSGKDDIVNQKTKNIRLYVKRVFISDDFDGELFPRYLSFVKGVVDSHDLPLNVSREILQESRIVRIMKKRLVRKAFDMILGISLSENREDYEKFWDNFGKHLKLGCIEDRENHKRIAPLLRFFSSQSENDMISLDEYVENMKPEQKAIYFIASDSITSAKNAPFLEKMLEKGLEVLYLVEPIDEVAVQSLKAYKEKDFVDISKEDLDLGDKNEEKEAAVKKEFGQTCDWIKKRLGDKVASVQISNRLSSSPCVLVSGKFGWSANMERLMKAQSTGDTISLDYMKGRRVFEINPDHSIIKNINAAYNSNPNDEDAMRAIDLMYDAALVSSGFTPDNPAELGGKIYEMMDVALSGKWSSPEVQPQQQQMAHSHDAETFEAEVVEPVEVDGKK
B11: RUG2 (protein, UniProt Q9ZT96 46-541)
chain: RPGTGIGLTVQCAIANRRFSSRSLDSPRRERSSRSSSSSGRDRDRDKDKGRDSKSLYSRPSLLDMNKEKAANRAKVYEFLRGIGIVPDELDGLELPVTADVMKERVEFLHKLGLTIEDINNYPLVLGCSVKKNMVPVLDYLGKLGVRKSTFTEFLRRYPQVLHSSVVIDLAPVVKYLQGLDIKPSDVPRVLERYPEVLGFKLEGTMSTSVAYLVGIGVARREIGGILTRYPEILGMRVARIIKPLVEYLEVLGIPRLAAARLIEKRPHILGFELDDTVKPNVQILQDFNVRETSLPSIIAQYPEIIGIDLKPKLDTQRKLLCSAIHLNPEDLGSLIERMPQFVSLSESPMLKHIDFLTKCGFSIDQTREMVIGCPQVLALNLGIMKLSFEYFQKEMKRPLQDLVDFPAFFTYGLESTVKPRHKKIIKKGIKCSLAWMLNCSDEKFEQRMSYDTIDIEEVETDPSSFDMNTLMQPEREEESDSEYEEEEDDDDEEFA

Target: CGL20a-TID-YFP fusion protein (Arabidopsis thaliana)
Test: proximity labelling

| binding | Binder |
| --- | --- |
| binds | B1 |
| binds | B2 |
| binds | B3 |
| binds | B4 |
| binds | B5 |
| binds | B6 |
| binds | B7 |
| binds | B8 |
| binds | B9 |
| binds | B10 |
| binds | B11 |
